# Screen size: about 340,000 compounds; about 170 (0.05%) were called active. This list was built around the results that the source calls inconclusive (neither active nor inactive); the mix of calls is not that of the screen. Calls come from the whole dose curve; as a rule, active = well fitted inhibition curve with a large enough effect in the signal ratio, with a control signal flat (not every such curve was filed as active); inconclusive = small, poorly fitted or top-dose-only effect, or effect the other way, or a change in a side signal; inactive = flat fitted curve, though single readings scatter; the % refers to the signal ratio. Potencies of inconclusive entries are doubtful fits and often do not repeat.
# Experiment: qHTS Assay to Find Inhibitors of Chronic Active B-Cell Receptor Signaling;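 for activity change, negative = inhibition: plate controls were basal doxycycline-induced cells for no effect and cells given 10 µM MG132 for full effect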
# Settings: ABC-DLBCL IkBa-CBG/CBR reporter, luminescence ratio (green luciferase fused to IkBa over red control in TMD8 lymphoma cells), 4 h
# Summary of the method: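 TMD8 human ABC-DLBCL cells with doxycycline-inducible IκBα–green luciferase fusion and unfused red luciferase, in 0.5% FBS medium; compounds up to 46 uM, 4 h at 37C. Green/red luminescence ratio, filter-overlap corrected, fitted to concentration-response curves.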
# [1] = activity change, negative = inhibition: at 46.1 µM (top of the series)
# Potency is the fitted concentration of half-maximal effect.
smiles,measurement,setting,value
Clc1ccc(CSc2nnc3ccccn23)c(Cl)c1,"activity change, negative = inhibition",[1],inconclusive: 5.76%
CC1CN(C(=O)CSc2nc(-c3ccc(F)cc3)cs2)CC(C)O1 (stereo unspecified),"activity change, negative = inhibition",[1],inconclusive: 6.66%
C/C(=N\NC(=O)c1cc(C)oc1C)c1ccc2c(c1)OCO2,Potency,[1],"inconclusive: 22.4 µM [falling, partial curve]"
Fc1cc(F)nc(NCc2ccccc2)n1,"activity change, negative = inhibition",[1],inconclusive: -2.3%
CCOC(=O)c1c(Cc2ccc(Cl)cc2)c[nH]c1C,"activity change, negative = inhibition",[1],inconclusive: 14.4%
CCc1ccc2c(CN3CCC(C(=O)OC)CC3)cc(=O)oc2c1,"activity change, negative = inhibition",[1],inconclusive: -7.76%
O=C(CS(=O)(=O)c1ccc2ccccc2c1)N1CCCCCC1,Potency,[1],"inconclusive: 6.31 µM [falling, single point]"
COc1ccc(NC(=O)c2ccccc2NC(=O)CSc2ccc(Cl)cc2)cc1,"activity change, negative = inhibition",[1],inconclusive: 8.86%
Cc1cc(C(=O)Nc2nc3c(C)cccc3s2)c(C)o1,"activity change, negative = inhibition",[1],inconclusive: -7.73%
N#Cc1ccccc1NC(=O)C1SC(=Nc2ccccc2)C(C(=O)Nc2ccc(Cl)cc2)=C1N (stereo unspecified),Potency,[1],"inconclusive: 20 µM [falling, single point]"
CCc1nnc(NC(=O)C2CCN(S(=O)(=O)Cc3ccccc3)CC2)s1,"activity change, negative = inhibition",[1],inconclusive: 10.4%
CC(=O)C1=NN(c2ccccc2)C(c2cccs2)N1c1ccc(N(C)C)cc1 (stereo unspecified),Potency,[1],"inconclusive: 29.1 µM [falling, single point]"
O=C(Nc1cccc(NC(=O)c2cccnc2)c1)c1cccnc1,"activity change, negative = inhibition",[1],inconclusive: -19.7%
Cc1ccc(C)c(NC(=O)c2ccccc2C(=O)c2ccccc2)c1,"activity change, negative = inhibition",[1],inconclusive: -16.8%
Cc1ccc(N(C(=O)CNC(=O)c2ccco2)C(C(=O)NC2CCCC2)c2cccnc2)c(C)c1 (stereo unspecified),"activity change, negative = inhibition",[1],inconclusive: 2.43%
COc1cc(NC(=O)c2cnc(N)s2)cc(C(=O)Nc2cccc(C(F)(F)F)c2)c1,"activity change, negative = inhibition",[1],inconclusive: -8.68%
O=C(C1CCCN(S(=O)(=O)c2ccc(Br)s2)C1)N1CCN(c2ccccc2)CC1 (stereo unspecified),"activity change, negative = inhibition",[1],inactive
CC12CCC(=O)N1C(C(=O)Nc1nc(-c3cc(F)ccc3F)cs1)CS2 (stereo unspecified),"activity change, negative = inhibition",[1],inconclusive: 11.6%
NS(=O)(=O)c1ccc(NC(=O)COC(=O)c2cc(Cl)ccc2[N+](=O)[O-])cc1,"activity change, negative = inhibition",[1],inactive
Cc1ccc(C)n1-n1cnc2sc3c(c2c1=O)CCC3,"activity change, negative = inhibition",[1],inactive
Cc1ccc2nc(SC(C)C(=O)NC3CCCc4ccccc43)[nH]c2c1 (stereo unspecified),"activity change, negative = inhibition",[1],inconclusive: -8.35%
CCn1nccc1C(=O)Nc1ccc(Cl)cn1,"activity change, negative = inhibition",[1],inconclusive: -27.1%
Cc1ccc(C(C(=O)NC2CCCCC2)N(C(=O)Cc2c[nH]c3ccccc23)c2ccccc2)o1 (stereo unspecified),Potency,[1],"inconclusive: 1.41 µM [falling, full curve]"
CCOC(=O)COc1ccccc1C1Nc2ccccc2C(=O)N1c1cccc(Cl)c1 (stereo unspecified),Potency,[1],"inconclusive: 0.794 µM [falling, partial curve, poor fit]"
COc1ccc(CN2C3CCCC2CC(NC(=O)Nc2cccc(C)c2)C3)cc1 (stereo unspecified),"activity change, negative = inhibition",[1],inactive
CC1CCC(NC(=O)CCNC(=O)c2ccc(Br)cc2)CC1 (stereo unspecified),"activity change, negative = inhibition",[1],inactive
O=C(c1cccc([N+](=O)[O-])c1)c1ccc2[nH]c(=O)[nH]c2c1,"activity change, negative = inhibition",[1],inconclusive: 1.49%
CCOC(=O)Cc1csc(NC(=O)c2ccc(C)cc2)n1,Potency,[1],"inconclusive: 17.8 µM [falling, single point]"
Cc1ccc(NC(=O)c2cccnc2)cc1S(=O)(=O)N1CCOCC1,"activity change, negative = inhibition",[1],inconclusive: 17.3%
CCC(=O)Oc1ccc(/C(CC)=C(\CC)c2ccc(OC(=O)CC)cc2)cc1,"activity change, negative = inhibition",[1],inconclusive: -1.25%
Cc1cc(NC(=O)COc2ccccc2C)ccc1NC(=O)c1cccs1,Potency,[1],"inconclusive: 12.6 µM [falling, partial curve, poor fit]"
Cc1ccccc1C(=O)N1CCN(c2ccc(NC(=O)c3cccs3)cc2)CC1,"activity change, negative = inhibition",[1],inconclusive: -1.36%
Cc1ccc(NC2Sc3ccccc3NC2=O)cc1 (stereo unspecified),Potency,[1],"inconclusive: 35.5 µM [rising, single point]"
N/C(=N\OC(=O)CCC1CCCC1)c1ccc(Br)cc1,"activity change, negative = inhibition",[1],inactive
Cc1cc(C)c(C(=O)N2CCCC(Nc3ccc(F)cc3)C2)o1 (stereo unspecified),"activity change, negative = inhibition",[1],inconclusive: -0.299%
Fc1cccc(-n2cc(-c3ccccc3)c3c(=S)nc[nH]c32)c1,"activity change, negative = inhibition",[1],inactive
COc1ccc(Nc2nnc(SCC(=O)Nc3ccc4[nH]c(=O)[nH]c4c3)s2)cc1,"activity change, negative = inhibition",[1],inconclusive: 8.14%
S=C(Nc1ccccc1)N1CCN(C/C=C/c2ccccc2)CC1,Potency,[1],"inconclusive: 3.16 µM [falling, partial curve, poor fit]"
CCCCCC(=O)NC(=S)Nc1ccc(Cl)cn1,"activity change, negative = inhibition",[1],inconclusive: -0.389%
O=C(CSc1ccc2nnc(-c3ccc(F)cc3)n2n1)NCC1CCCO1 (stereo unspecified),"activity change, negative = inhibition",[1],inconclusive: 3.56%
CC(C(=O)Nc1ccccc1Br)c1ccc([N+](=O)[O-])cc1 (stereo unspecified),"activity change, negative = inhibition",[1],inactive
Cc1nc(N)nc(-c2ccccc2O)n1,Potency,[1],"inconclusive: 0.206 µM [rising, full curve, poor fit]"
COc1ccc(/C=C2/C(=O)OCc3cc(OC)c(OC)cc32)c(OC)c1,Potency,[1],"inconclusive: 16.4 µM [falling, partial curve, poor fit]"
CN(CCOc1cccc(C(F)(F)F)c1)Cc1ccccc1,"activity change, negative = inhibition",[1],inactive
O=C(NCc1ccco1)C(=O)c1cn(CC(=O)N2CCCC2)c2ccccc12,Potency,[1],"inconclusive: 7.94 µM [falling, partial curve, poor fit]"
CCOc1ccc(/C=N/N2C(C)CCCC2C)cc1OC (stereo unspecified),"activity change, negative = inhibition",[1],inconclusive: 2.3%
COC(=O)c1c(C)oc2ccc(N(C(=O)c3ccncc3)S(=O)(=O)c3ccc(C)cc3)cc12,Potency,[1],"inconclusive: 13 µM [falling, partial curve]"
CC(=O)Nc1ccc(/C=N/NC(=O)c2cccc(S(=O)(=O)N3CCOCC3)c2)cc1,"activity change, negative = inhibition",[1],inconclusive: 1.28%
CCOc1ccccc1NS(=O)(=O)c1ccc(-c2cnc(C3CC3)o2)cc1,Potency,[1],"inconclusive: 11.2 µM [falling, partial curve]"
O=C(NNC(=S)Nc1ccc(F)cc1F)c1ccco1,Potency,[1],"inconclusive: 12.6 µM [falling, partial curve]"
CCCn1c(=N)n(CC(=O)c2ccc(Cl)cc2)c2ccccc21,"activity change, negative = inhibition",[1],inconclusive: 2.62%
CC(=O)c1ccc(NC(=S)N2CCN(S(=O)(=O)c3ccc(F)cc3)CC2)cc1,"activity change, negative = inhibition",[1],inactive
O=Cc1cn(-c2ccccc2)nc1-c1cccnc1,"activity change, negative = inhibition",[1],inactive
COc1ccccc1-c1nc(S(=O)(=O)c2ccccc2)c(N2CCCCC2)o1,"activity change, negative = inhibition",[1],inconclusive: -23.3%
Cc1ccc(NC(=O)COC(=O)CN2C(=O)COc3ccccc32)cc1,"activity change, negative = inhibition",[1],inconclusive: 14.4%
CO/N=C/c1ccc(N2CCN(C(=O)c3ccc(F)cc3)CC2)c([N+](=O)[O-])c1,"activity change, negative = inhibition",[1],inactive
Cc1cccc2sc(NC(=O)C3CCCN(S(=O)(=O)c4cccc5nonc45)C3)nc12 (stereo unspecified),"activity change, negative = inhibition",[1],inconclusive: 10.1%
Cc1ccc(CSc2nc3ccsc3c(=O)n2Cc2ccccn2)cc1,Potency,[1],"inconclusive: 23.1 µM [falling, partial curve, poor fit]"
Cn1c(NCc2ccc(Cl)cc2)nc2ccccc21,"activity change, negative = inhibition",[1],inactive
CC(C)CNC(=O)CC(=O)NN=C1CCCC1,"activity change, negative = inhibition",[1],inconclusive: 0.161%
COC(=O)c1c(NC(C)=O)sc(C(=O)Nc2ccccc2OC)c1C,"activity change, negative = inhibition",[1],inconclusive: -168%
Cc1nc(C(=O)NCCO)cc2c1[nH]c1ccccc12,"activity change, negative = inhibition",[1],inconclusive: -0.689%
Clc1ccc(N=C2SCC3CCCCN23)cc1 (stereo unspecified),"activity change, negative = inhibition",[1],inconclusive: 16.9%
COc1ccc(/C=N/Nc2cc(C)nc(NS(=O)(=O)c3ccc(C)cc3)n2)cc1,"activity change, negative = inhibition",[1],inconclusive: -12.7%
CCCc1nnc(NC(=O)c2cc3ccccc3o2)s1,Potency,[1],"inconclusive: 35.5 µM [falling, partial curve, poor fit]"
Cc1cc(C)[n+]2n1C(=O)C(c1ccccc1)=C2[O-],"activity change, negative = inhibition",[1],inconclusive: 11.7%
same,"activity change, negative = inhibition",at 46.1 µM (top of the series),inactive: 3.44%
Cc1cccc(-n2ncc3c(NC4CCCC4)ncnc32)c1,"activity change, negative = inhibition",[1],inconclusive: 3.23%
CC(C)N(C(=O)Nc1ccc2nsnc2c1)C(C)C,Potency,[1],"inconclusive: 3.98 µM [falling, full curve, poor fit]"
Cc1ccccc1CS(=O)(=O)c1ncc(Cl)c(C(=O)Nc2ccc(F)cc2)n1,Potency,[1],"inconclusive: 15.8 µM [rising, partial curve, poor fit]"
CCOc1ccc(-c2nnc(SCC(=O)NCc3ccc(C)cc3)nc2-c2ccc(OCC)cc2)cc1,"activity change, negative = inhibition",[1],inactive
N#CC1=C(N)N(c2ccccc2)C(c2cccc([N+](=O)[O-])c2)C1(C#N)C#N (stereo unspecified),"activity change, negative = inhibition",[1],inconclusive: -1.97%
O=C(NCCN1CCOCC1)c1csc2c1CCCC2,"activity change, negative = inhibition",[1],inconclusive: 9.76%
CC(Sc1ccccc1)C(=O)N1CCN(S(=O)(=O)c2ccccc2)CC1 (stereo unspecified),"activity change, negative = inhibition",[1],inconclusive: -13.4%
O=C(Cn1cc([N+](=O)[O-])cn1)NCCc1nc2ccccc2[nH]1,"activity change, negative = inhibition",[1],inconclusive: 0.734%
C=CCc1cccc(/C=N/NC(=O)c2ccccc2OC)c1O,Potency,[1],"inconclusive: 14.1 µM [falling, partial curve]"
CCc1ccc(Nc2nc(N)nc(CSc3nc4ccccc4s3)n2)cc1,"activity change, negative = inhibition",[1],inconclusive: -9.06%
Cc1ccc(CC(=O)N2CC(C)OC(C)C2)cc1 (stereo unspecified),"activity change, negative = inhibition",[1],inconclusive: 9.36%
COc1ccc(C(=O)/C=C/c2ccsc2)cc1CSCC(=O)O,"activity change, negative = inhibition",[1],inconclusive: -27.1%
Nc1ccc(CCc2nc3ccccc3o2)cc1,Potency,[1],"inconclusive: 20.6 µM [falling, single point]"
C=Cc1c(C)c2cc3[nH]c(cc4nc(cc5nc(cc1[nH]2)C(C)=C5CCC(=O)O)C(CCC(=O)O)=C4C)c(C)c3C=C,"activity change, negative = inhibition",[1],inconclusive: 0.13%

# Shown with bars between the fields: entries from further up.
smiles | measurement | setting | value
CCc1ccc2c(CN3CCC(C(=O)OC)CC3)cc(=O)oc2c1 | activity change, negative = inhibition | [1] | inconclusive: -7.76%
CCc1nnc(NC(=O)C2CCN(S(=O)(=O)Cc3ccccc3)CC2)s1 | activity change, negative = inhibition | [1] | inconclusive: 10.4%
Cc1nc(C(=O)NCCO)cc2c1[nH]c1ccccc12 | activity change, negative = inhibition | [1] | inconclusive: -0.689%

# Exported with tabs: entries from further up.
smiles	measurement	setting	value
CC(=O)C1=NN(c2ccccc2)C(c2cccs2)N1c1ccc(N(C)C)cc1 (stereo unspecified)	Potency	[1]	inconclusive: 29.1 µM [falling, single point]
O=C(Nc1cccc(NC(=O)c2cccnc2)c1)c1cccnc1	activity change, negative = inhibition	[1]	inconclusive: -19.7%
COc1ccc(Nc2nnc(SCC(=O)Nc3ccc4[nH]c(=O)[nH]c4c3)s2)cc1	activity change, negative = inhibition	[1]	inconclusive: 8.14%
COC(=O)c1c(C)oc2ccc(N(C(=O)c3ccncc3)S(=O)(=O)c3ccc(C)cc3)cc12	Potency	[1]	inconclusive: 13 µM [falling, partial curve]
